This is an account of results in paper PMC9953989.

By UniProt entry, the sequences of proteins in these tests, tags left out.
UniProt Q16665: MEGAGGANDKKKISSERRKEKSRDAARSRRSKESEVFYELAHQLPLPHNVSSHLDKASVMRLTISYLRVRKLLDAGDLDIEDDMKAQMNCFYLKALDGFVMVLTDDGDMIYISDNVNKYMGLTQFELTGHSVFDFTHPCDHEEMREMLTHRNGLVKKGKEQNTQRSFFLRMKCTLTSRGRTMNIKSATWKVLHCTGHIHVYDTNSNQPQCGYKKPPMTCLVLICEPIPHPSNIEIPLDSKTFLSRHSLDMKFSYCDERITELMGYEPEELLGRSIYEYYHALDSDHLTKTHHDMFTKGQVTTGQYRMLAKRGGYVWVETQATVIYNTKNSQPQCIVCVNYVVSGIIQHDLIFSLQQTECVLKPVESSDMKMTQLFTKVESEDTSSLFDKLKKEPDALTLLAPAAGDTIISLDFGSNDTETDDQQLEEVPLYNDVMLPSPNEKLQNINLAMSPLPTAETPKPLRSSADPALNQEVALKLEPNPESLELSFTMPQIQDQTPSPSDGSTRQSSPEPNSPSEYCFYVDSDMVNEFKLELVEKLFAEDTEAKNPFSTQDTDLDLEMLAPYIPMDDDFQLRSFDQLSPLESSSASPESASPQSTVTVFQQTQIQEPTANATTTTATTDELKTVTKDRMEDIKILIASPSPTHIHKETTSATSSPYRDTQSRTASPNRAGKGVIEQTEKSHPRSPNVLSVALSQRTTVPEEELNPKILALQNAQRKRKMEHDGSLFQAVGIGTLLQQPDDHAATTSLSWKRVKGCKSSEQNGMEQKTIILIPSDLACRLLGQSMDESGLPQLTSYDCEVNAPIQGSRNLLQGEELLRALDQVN

Assay [1] deals with T1, FLAG-tagged HDAC8 (histone deacetylase 8) (UniProt Q9BY41).
T1 sequence: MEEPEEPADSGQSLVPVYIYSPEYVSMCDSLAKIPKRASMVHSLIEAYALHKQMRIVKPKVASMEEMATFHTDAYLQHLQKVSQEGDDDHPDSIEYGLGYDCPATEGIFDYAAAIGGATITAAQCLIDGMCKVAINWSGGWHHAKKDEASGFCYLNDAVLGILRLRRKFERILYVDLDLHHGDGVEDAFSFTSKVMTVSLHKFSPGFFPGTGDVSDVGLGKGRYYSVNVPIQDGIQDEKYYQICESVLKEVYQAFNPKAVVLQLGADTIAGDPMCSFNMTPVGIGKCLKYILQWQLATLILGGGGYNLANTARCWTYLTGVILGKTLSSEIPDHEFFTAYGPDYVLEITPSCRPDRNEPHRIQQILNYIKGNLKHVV
Nature of the assay: co-IP; HEK-293T cells co-transfected with FLAG-HDAC8 and HA-HIF-1α; IP with IgG or anti-FLAG antibodies and A/G beads at 4 °C overnight, washed with lysis buffer (300 mM NaCl); immunoblot with antibodies against FLAG and HA. Background: A western blot detects proteins with antibodies after separation by electrophoresis.

The target in assay [2] is T2, endogenous HDAC8 (histone deacetylase 8) (human (endogenous in A2058)) (UniProt Q9BY41).
T2 sequence: T1 sequence
Put plainly: co-IP; endogenous proteins in A2058 cells treated with 100 µM CoCl2 for 12 h; IP with IgG or HDAC8 antibody and A/G beads at 4 °C overnight, washed with lysis buffer (300 mM NaCl); immunoblot with antibodies against HDAC8 and HIF-1α.

These are yes or no findings as the source states them, for the method shown. In cells and extracts the contact can be indirect. Some binding calls cover weakened binding; strength is not graded here. Sequences can lack the tags named with a protein.

Consider “HA-tagged HIF-1α (hypoxia-inducible factor-1 α) (from UniProt Q16665 1-826)”, for which the binding entry in assay [1] is “binds”.

Turning to “endogenous HIF-1α (hypoxia-inducible factor-1 α) (from UniProt Q16665 1-826)”, the binding result in assay [2] was “binds”.
